± gives the standard deviation of the averaged measurements. Values are relative to the signal before dosing, not to a vehicle control; the signal also falls without drug.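 Fibroblast labels name human fibroblasts: mostly primary ones from tissues such as uterus (C12385, HUF), lung (H6013), bone (Hs27A), adrenal (HADF) and skin (WS1), plus mammary HMF and breast cancer-associated Hs343T. The cancer cells are basal-like or mesenchymal-like triple-negative breast cancer lines. The paper calls a changed response a hit when it shifts by more than 3x the replicate standard deviation. The tissue of the other fibroblasts is not given here.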
System: BT20
Assay: relative JC-1 red fluorescence (viability) vs pre-drug, coculture with fibroblast (fraction); higher = more viable cancer cells
Procedure: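 JC-1 labelled TNBC cells cocultured 1:1 (1,500 cells each) with CellTrace Violet stained primary or stromal fibroblasts in 384-well plates in FluoroBrite medium, treated with one of 42 anticancer drugs at 0.1, 1, 10 or 100 uM. JC-1 red fluorescence (mitochondrial integrity in cancer cells only) was read by plate reader every 8 h for 72 h. Values are normalised to each well's pre-drug value. The stock of one drug was tenfold lower, so its dose labels may be too high.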

CC(C)C[C@H](NC(=O)[C@@H](COC(C)(C)C)NC(=O)[C@H](Cc1ccc(O)cc1)NC(=O)[C@H](CO)NC(=O)[C@H](Cc1c[nH]c2ccccc12)NC(=O)[C@H](Cc1cnc[nH]1)NC(=O)[C@@H]1CCC(=O)N1)C(=O)N[C@@H](CCCNC(=N)N)C(=O)N1CCC[C@H]1C(=O)NNC(N)=O [Goserelin]
relative JC-1 red fluorescence
Details | 8 h | 16 h | 24 h | 32 h | 40 h | 48 h | 56 h | 64 h | 72 h
10 µM, coculture fibroblast: C12385 | 0.907 ± 0.012 | 0.7941 ± 0.0015 | 0.758 ± 0.008 | 0.695 ± 0.017 | 0.636 ± 0.029 | 0.603 ± 0.024 | 0.567 ± 0.016 | 0.538 ± 0.019 | 0.52 ± 0.017
10 µM, coculture fibroblast: H6013 | 0.9328 ± 0.0085 | 0.899 ± 0.0061 | 0.874 ± 0.036 | 0.839 ± 0.027 | 0.795 ± 0.032 | 0.773 ± 0.022 | 0.775 ± 0.028 | 0.757 ± 0.033 | 0.742 ± 0.025
10 µM, coculture fibroblast: H6019 | 0.868 ± 0.017 | 0.818 ± 0.0099 | 0.79 ± 0.016 | 0.73 ± 0.014 | 0.6859 ± 0.0048 | 0.6652 ± 0.0012 | 0.637 ± 0.007 | 0.608 ± 0.012 | 0.585 ± 0.016
10 µM, coculture fibroblast: H6076 | 0.934 ± 0.082 | 0.934 ± 0.054 | 0.876 ± 0.093 | 0.842 ± 0.097 | 0.822 ± 0.13 | 0.812 ± 0.14 | 0.808 ± 0.16 | 0.807 ± 0.18 | 0.796 ± 0.19
10 µM, coculture fibroblast: H6231 | 0.828 ± 0.074 | 0.904 ± 0.017 | 0.8275 ± 0.0046 | 0.766 ± 0.01 | 0.734 ± 0.0097 | 0.683 ± 0.0099 | 0.649 ± 0.0099 | 0.622 ± 0.0088 | 0.596 ± 0.012
10 µM, coculture fibroblast: HADF | 0.915 ± 0.11 | 0.883 ± 0.03 | 0.841 ± 0.078 | 0.797 ± 0.075 | 0.755 ± 0.063 | 0.721 ± 0.056 | 0.716 ± 0.044 | 0.699 ± 0.037 | 0.664 ± 0.04
10 µM, coculture fibroblast: HCFa | 0.8904 ± 0.0031 | 0.845 ± 0.021 | 0.834 ± 0.044 | 0.766 ± 0.042 | 0.715 ± 0.037 | 0.676 ± 0.043 | 0.656 ± 0.051 | 0.642 ± 0.048 | 0.608 ± 0.052
10 µM, coculture fibroblast: HCPF | 0.842 ± 0.12 | 0.896 ± 0.028 | 0.834 ± 0.021 | 0.782 ± 0.034 | 0.739 ± 0.057 | 0.682 ± 0.062 | 0.643 ± 0.073 | 0.631 ± 0.077 | 0.587 ± 0.079
10 µM, coculture fibroblast: HHSteC | 0.929 ± 0.011 | 0.862 ± 0.014 | 0.876 ± 0.05 | 0.821 ± 0.067 | 0.786 ± 0.077 | 0.752 ± 0.088 | 0.735 ± 0.1 | 0.711 ± 0.12 | 0.681 ± 0.13
10 µM, coculture fibroblast: HMF | 0.768 ± 0.11 | 0.933 ± 0.029 | 0.861 ± 0.094 | 0.816 ± 0.14 | 0.788 ± 0.18 | 0.753 ± 0.2 | 0.731 ± 0.23 | 0.706 ± 0.24 | 0.678 ± 0.25
10 µM, coculture fibroblast: HPFa | 0.862 ± 0.19 | 0.911 ± 0.046 | 0.91 ± 0.056 | 0.814 ± 0.037 | 0.761 ± 0.047 | 0.702 ± 0.05 | 0.661 ± 0.056 | 0.614 ± 0.059 | 0.55 ± 0.067
10 µM, coculture fibroblast: HUF | 0.9385 ± 0.0011 | 0.85 ± 0.018 | 0.848 ± 0.029 | 0.784 ± 0.038 | 0.758 ± 0.036 | 0.724 ± 0.027 | 0.721 ± 0.033 | 0.708 ± 0.028 | 0.695 ± 0.029
10 µM, coculture fibroblast: Hs5 | 0.85 ± 0.18 | 0.899 ± 0.061 | 0.818 ± 0.066 | 0.759 ± 0.069 | 0.711 ± 0.081 | 0.663 ± 0.077 | 0.627 ± 0.072 | 0.586 ± 0.069 | 0.559 ± 0.07
10 µM, coculture fibroblast: Hs27A | 0.778 ± 0.085 | 0.797 ± 0.062 | 0.941 ± 0.02 | 0.928 ± 0.028 | 0.877 ± 0.033 | 0.851 ± 0.021 | 0.825 ± 0.023 | 0.792 ± 0.041 | 0.73 ± 0.043
10 µM, coculture fibroblast: Hs343T | 0.802 ± 0.039 | 0.9521 ± 0.0094 | 0.852 ± 0.021 | 0.804 ± 0.027 | 0.729 ± 0.021 | 0.669 ± 0.011 | 0.5959 ± 0.0014 | 0.5596 ± 0.0042 | 0.509 ± 0.0053
10 µM, coculture fibroblast: WS1 | 0.859 ± 0.0095 | 0.764 ± 0.0095 | 0.7005 ± 0.0056 | 0.625 ± 0.0063 | 0.548 ± 0.015 | 0.516 ± 0.017 | 0.476 ± 0.019 | 0.441 ± 0.024 | 0.411 ± 0.029
100 µM, coculture fibroblast: C12385 | 0.90411 ± 3.9e-05 | 0.827 ± 0.038 | 0.789 ± 0.0031 | 0.7319 ± 0.0067 | 0.676 ± 0.0074 | 0.646 ± 0.0093 | 0.612 ± 0.0077 | 0.589 ± 0.011 | 0.569 ± 0.0076
100 µM, coculture fibroblast: H6013 | 0.974 ± 0.025 | 0.905 ± 0.022 | 0.8862 ± 0.0053 | 0.866 ± 0.027 | 0.8208 ± 0.0043 | 0.797 ± 0.014 | 0.783 ± 0.04 | 0.754 ± 0.06 | 0.73 ± 0.081
100 µM, coculture fibroblast: H6019 | 0.895 ± 0.034 | 0.862 ± 0.047 | 0.862 ± 0.075 | 0.819 ± 0.07 | 0.775 ± 0.082 | 0.757 ± 0.086 | 0.72 ± 0.079 | 0.692 ± 0.074 | 0.66 ± 0.065
100 µM, coculture fibroblast: H6076 | 0.982 ± 0.025 | 0.872 ± 0.041 | 0.836 ± 0.03 | 0.823 ± 0.031 | 0.796 ± 0.033 | 0.783 ± 0.021 | 0.779 ± 0.026 | 0.789 ± 0.024 | 0.776 ± 0.018
100 µM, coculture fibroblast: H6231 | 0.807 ± 0.11 | 0.941 ± 0.012 | 0.822 ± 0.015 | 0.768 ± 0.016 | 0.711 ± 0.014 | 0.666 ± 0.011 | 0.622 ± 0.009 | 0.596 ± 0.014 | 0.562 ± 0.019
100 µM, coculture fibroblast: HADF | 0.9894 ± 0.0094 | 0.898 ± 0.024 | 0.889 ± 0.027 | 0.852 ± 0.027 | 0.823 ± 0.034 | 0.785 ± 0.046 | 0.769 ± 0.044 | 0.755 ± 0.033 | 0.711 ± 0.041
100 µM, coculture fibroblast: HCFa | 0.9514 ± 0.0095 | 0.863 ± 0.022 | 0.849 ± 0.046 | 0.787 ± 0.038 | 0.728 ± 0.042 | 0.69 ± 0.037 | 0.666 ± 0.035 | 0.644 ± 0.042 | 0.601 ± 0.023
100 µM, coculture fibroblast: HCPF | 0.849 ± 0.18 | 0.918 ± 0.051 | 0.846 ± 0.026 | 0.798 ± 0.017 | 0.754 ± 0.008 | 0.714 ± 0.017 | 0.679 ± 0.049 | 0.652 ± 0.052 | 0.609 ± 0.044
100 µM, coculture fibroblast: HHSteC | 0.943 ± 0.023 | 0.877 ± 0.012 | 0.871 ± 0.025 | 0.8 ± 0.014 | 0.753 ± 0.031 | 0.716 ± 0.023 | 0.695 ± 0.033 | 0.67 ± 0.041 | 0.639 ± 0.036
100 µM, coculture fibroblast: HMF | 0.9595 ± 0.0058 | 0.832 ± 0.016 | 0.782 ± 0.022 | 0.731 ± 0.042 | 0.694 ± 0.051 | 0.656 ± 0.05 | 0.627 ± 0.049 | 0.604 ± 0.055 | 0.573 ± 0.059
100 µM, coculture fibroblast: HPFa | 0.944 ± 0.028 | 0.8621 ± 0.003 | 0.8496 ± 0.0016 | 0.754 ± 0.016 | 0.709 ± 0.016 | 0.657 ± 0.02 | 0.62 ± 0.017 | 0.573 ± 0.019 | 0.509 ± 0.014
100 µM, coculture fibroblast: HUF | 0.92706 ± 0.00028 | 0.8649 ± 0.0046 | 0.866 ± 0.015 | 0.789 ± 0.037 | 0.736 ± 0.056 | 0.695 ± 0.057 | 0.682 ± 0.053 | 0.663 ± 0.061 | 0.639 ± 0.062
100 µM, coculture fibroblast: Hs5 | 0.86 ± 0.067 | 0.89 ± 0.049 | 0.825 ± 0.023 | 0.784 ± 0.012 | 0.7567 ± 0.00035 | 0.725 ± 0.017 | 0.693 ± 0.021 | 0.665 ± 0.025 | 0.638 ± 0.024
100 µM, coculture fibroblast: Hs27A | 0.91 ± 0.025 | 0.707 ± 0.022 | 0.846 ± 0.18 | 0.9705 ± 0.0079 | 0.926 ± 0.02 | 0.905 ± 0.026 | 0.872 ± 0.035 | 0.849 ± 0.031 | 0.789 ± 0.032
100 µM, coculture fibroblast: Hs343T | 0.786 ± 0.13 | 0.886 ± 0.023 | 0.826 ± 0.014 | 0.764 ± 0.0089 | 0.715 ± 0.022 | 0.669 ± 0.025 | 0.617 ± 0.018 | 0.578 ± 0.03 | 0.547 ± 0.038
100 µM, coculture fibroblast: WS1 | 0.869 ± 0.017 | 0.779 ± 0.016 | 0.753 ± 0.021 | 0.686 ± 0.04 | 0.624 ± 0.048 | 0.59 ± 0.049 | 0.55 ± 0.06 | 0.526 ± 0.068 | 0.498 ± 0.069
